Source: publication PMC10656229

Protein sequences, listed by entry. Tags and fused reporters are not part of them.
UniProt Q6SEG5: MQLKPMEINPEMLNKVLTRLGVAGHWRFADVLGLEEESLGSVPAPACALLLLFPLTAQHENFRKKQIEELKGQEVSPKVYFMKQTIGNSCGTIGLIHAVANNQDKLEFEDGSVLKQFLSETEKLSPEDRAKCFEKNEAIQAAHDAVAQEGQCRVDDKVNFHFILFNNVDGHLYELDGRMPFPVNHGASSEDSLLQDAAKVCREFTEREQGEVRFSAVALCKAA

Target: Myc-UCHL1 (UniProt Q6SEG5)
Assay: affinity purification with mass spectrometry; lysate of porcine granulosa cells precleared with magnetic beads, IP with anti-Myc overnight at 4 °C, beads washed three times, LC-MS/MS

binding: binds
B1: voltage-dependent anion channel 2 (VDAC2) (protein, UniProt Q9MZ15 1-294)
chain: MASYGQTCPRPMCIPPSYADLGKAARDIFNKGFGFGLVKLDVKTKSCSGVEFSTSGSSNTDTGKVTGTLETKYKWCEYGLTFTEKWNTDNTLGTEIAIEDQICQGLKLTFDTTFSPNTGKKSGKIKSSYKRECVNLGCDVDFDFAGPAIHGSAVFGYEGWLAGYQMTFDSAKSKLTRNNFAVGYRTGDFQLHTNVNDGTEFGGSIYQKVCEDLDTSVNLAWTSGTNCTRFGIAAKYQLDPTASISAKVNNSSLIGVGYTQTLRPGVKLTLSALVDGKSINAGGHKLGLALELEA

No constants are given. Whether binding was seen depends on the method and setting. In cells and extracts the contact can be indirect. A yes stands for co-enrichment or nearness to the bait. Other partners may have been found. Tags and fused reporters may be left off the sequences shown.
